Reference: the supplement of paper PMC7877785
± gives the uncertainty stated by the source. Many of these values have a large error.

Experiment: self-splicing fitness, log relative to wild type (ln ratio); higher = more splicing; Tetrahymena group I intron in knt gene, E. coli kanamycin selection, DiMSum; sequences stand for … in CUCUCU…GGAGGGAAAAGUUAUCAGGCAUGCACCUGGUAGCUAGUCUUUAAACCAAUAGAUUGCAUCGGUUUAAAAGGCAAGACCGUCAAAUUGCGGGAAAGGGGUCAACAGCCGUUCAGUACCAAGUCUCAGGGGAAACUUUGAGAUGGCCUUGCAAAGGGUAUGGUAAUAAGCUGACGGACAUGGUCCUAACCACGCAGCCAAGUCCUAAGUCAACAGAUCUUCUGUUGAUAUGGAUGCAGUUCACAGACUAAAUGUCGGUCGGGGAAGAUGUAUUCUUCUCAUAAGAUAUAGUCGGACCUCUCCUUAAUGGGAGCUAGCGGAUGAAGUGAUGCAACACUGGAGCCGCUGGGAACUAAUUUGUAUGCGAAAGUAUAUUGAUUAGUUUUGGAGUACUCGUGGUCG
Procedure, shortened: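 Library with all eight P1ex-region intron nucleotides randomised, intron inside the knt kanamycin-resistance gene on pET-22b(+), in E. coli BL21(DE3). Cells grew overnight at 37°C or 30°C on LB agar with or without 25 μg/mL kanamycin (plus 100 μg/mL carbenicillin, 50 μM IPTG, 0.2% rhamnose), in six replicate transformations. Pooled colonies were amplicon-sequenced on Illumina HiSeq 2500. DiMSum fitness is the error-weighted combination of wild-type-normalised replicate fold changes, kanamycin versus none.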

Row | Sequence | self-splicing fitness (ln) (30 °C) | self-splicing fitness (ln) (37 °C)
1 | UCCCAGCAAUAUUACGUCUC | -3.23 ± 0.22 | -2.89 ± 0.25
2 | UAGGAGCAAUAUUACGCCAG | -2.77 ± 0.78 | -1.74 ± 0.58
3 | AAUAAGCAAUAUUACGGACG | -0.851 ± 0.15 | -0.397 ± 0.15
4 | CUGCAGCAAUAUUACGGAUC | -5.88 ± 1 | 
5 | CUGUAGCAAUAUUACGUAAU | -3.88 ± 0.3 | -3.29 ± 0.37
6 | CCCGAGCAAUAUUACGCUAC | -3.35 ± 0.65 | -2.05 ± 0.8
7 | ACGGAGCAAUAUUACGUAGG |  | -2.69 ± 0.53
8 | GGCGAGCAAUAUUACGACGC |  | -1.45 ± 0.5
9 | UAAUAGCAAUAUUACGAUGA | -2.56 ± 0.19 | -1.48 ± 0.16
10 | GGAAAGCAAUAUUACGCGCG | -0.394 ± 0.08 | -0.275 ± 0.12
11 | GAAAAGCAAUAUUACGCCGC |  | -2.13 ± 0.56
12 | AAGGAGCAAUAUUACGUGAC | -2.46 ± 0.55 | 
13 | CCUAAGCAAUAUUACGAAAC |  | -4.61 ± 1
14 | CUGGAGCAAUAUUACGCAUA | -3.4 ± 0.61 | 
15 | CCGAAGCAAUAUUACGCCUC |  | -2.53 ± 0.54
16 | UUGGAGCAAUAUUACGAGGC |  | -1.6 ± 0.53
17 | AUUGAGCAAUAUUACGACCA | -1.66 ± 0.71 | -2.16 ± 0.58
18 | AGACAGCAAUAUUACGAAGC | -4.09 ± 1 | 
19 | CACGAGCAAUAUUACGCGCC | -2.92 ± 0.56 | 
20 | AUGUAGCAAUAUUACGAGCC | -4.06 ± 0.52 | 
21 | UUGGAGCAAUAUUACGCUUG | -2.69 ± 0.3 | -1.25 ± 0.27
22 | ACUAAGCAAUAUUACGUGUA | -2.6 ± 0.13 | -1.38 ± 0.12
23 | CUAGAGCAAUAUUACGGACU | -2.28 ± 0.51 | -1.47 ± 1.2
24 | UGAGAGCAAUAUUACGGCGC | -1.32 ± 0.71 | -2.04 ± 0.65

Row | Sequence | self-splicing fitness (ln) (30 °C) | self-splicing fitness (ln) (37 °C)
25 | AGAGAGCAAUAUUACGACGG |  | -2.53 ± 0.63
26 | GUCAAGCAAUAUUACGUCAC | -3.72 ± 1 | -3.69 ± 0.59
27 | UUAGAGCAAUAUUACGAAUA | -2.32 ± 0.66 | 
28 | UGUCAGCAAUAUUACGGAGC | -1.16 ± 0.59 | 
29 | GUAAAGCAAUAUUACGGAGA |  | -3.62 ± 0.51
30 | GAAGAGCAAUAUUACGGGUC |  | -2.96 ± 0.53
31 | UCAUAGCAAUAUUACGUGGC | -4.46 ± 1 | 
32 | GAUGAGCAAUAUUACGGGAU | -3.89 ± 1 | 
33 | GCAGAGCAAUAUUACGUCUC | -4.26 ± 1 | 
34 | GGGAAGCAAUAUUACGAGCC | -1.74 ± 0.87 | 0.917 ± 1.1
35 | CGUGAGCAAUAUUACGACUC | -2.52 ± 0.59 | -2.47 ± 0.54
36 | CUUGAGCAAUAUUACGACCA |  | -2.08 ± 1.1
37 | CCUGAGCAAUAUUACGCACC | -4.56 ± 1 | 
38 | CAGAAGCAAUAUUACGGUCC |  | -3.96 ± 0.51
39 | CCUUAGCAAUAUUACGGUCA | -4.77 ± 0.51 | 
40 | GUGUAGCAAUAUUACGUAUC |  | -1.52 ± 0.51
41 | UUAUAGCAAUAUUACGAGUU | -4.08 ± 0.51 | 
42 | GCUCAGCAAUAUUACGAGGG | -2.38 ± 0.16 | -2.57 ± 0.25
43 | UGGUAGCAAUAUUACGCCAU | -2.44 ± 0.54 | 
44 | CCCGAGCAAUAUUACGACCA | -2.24 ± 0.59 | 
45 | AUUGAGCAAUAUUACGAACC | -1.27 ± 0.91 | 
46 | AUUUAGCAAUAUUACGGGUU | -4.83 ± 0.51 | 
47 | GUGGAGCAAUAUUACGAGUU | -5.15 ± 0.72 | 
48 | AAACAGCAAUAUUACGCCGC | -3.72 ± 1 | -3.87 ± 0.51

Row | Sequence | self-splicing fitness (ln) (30 °C) | self-splicing fitness (ln) (37 °C)
49 | UAGCAGCAAUAUUACGUACG | -1.2 ± 0.072 | -0.47 ± 0.1
50 | UGGAAGCAAUAUUACGCUUC | -2.48 ± 1.1 | -2.07 ± 0.65
51 | UACUAGCAAUAUUACGCUAC | -4.01 ± 0.52 | 
52 | UAUCAGCAAUAUUACGCUCA | -0.0488 ± 0.092 | 0.0773 ± 0.11
53 | CUGGAGCAAUAUUACGCUAA | -4.8 ± 1 | -2.76 ± 0.62
54 | UUGUAGCAAUAUUACGCUCC |  | -1.68 ± 0.7
55 | UAUGAGCAAUAUUACGCUAG |  | -1.36 ± 0.84
56 | UAGCAGCAAUAUUACGAGGC | -4.96 ± 0.51 | 
57 | UCGGAGCAAUAUUACGGCCU |  | -1.99 ± 0.67
58 | UAAGAGCAAUAUUACGCCGU | -3.42 ± 0.6 | 
59 | ACCAAGCAAUAUUACGCCGG | -2.33 ± 0.13 | -0.125 ± 0.13
60 | GUAUAGCAAUAUUACGCGCC | -2.2 ± 0.67 | -1.67 ± 0.67
61 | UUUCAGCAAUAUUACGGCAU | -1.87 ± 0.16 | -1.08 ± 0.19
62 | UGGUAGCAAUAUUACGAAAC | -4.02 ± 0.42 | -2.42 ± 0.45
63 | GUCUAGCAAUAUUACGGGAC | -1.65 ± 0.54 | 
64 | GGUAAGCAAUAUUACGUUUG | -4.17 ± 0.72 | 
65 | CUGAAGCAAUAUUACGUCAA | -1.2 ± 0.065 | -0.435 ± 0.084
66 | UUGUAGCAAUAUUACGUUAC | -3.84 ± 0.54 | 
67 | CGGGAGCAAUAUUACGCCCU | -3.3 ± 0.55 | -1.47 ± 1.2
68 | GUCGAGCAAUAUUACGUGCC |  | -1.58 ± 0.88
69 | ACAGAGCAAUAUUACGAGAG | -3.84 ± 0.53 | 
70 | GGCGAGCAAUAUUACGGGAU | -4.17 ± 0.74 | 
71 | UAUUAGCAAUAUUACGAGCG | -0.705 ± 0.11 | -0.219 ± 0.15
72 | UAUGAGCAAUAUUACGACAC | -2.37 ± 0.64 | 

Given as labelled records: part of the list above
UAGCAGCAAUAUUACGUACG
  self-splicing fitness (ln) (30 °C): -1.2 ± 0.072
  self-splicing fitness (ln) (37 °C): -0.47 ± 0.1
GUAUAGCAAUAUUACGCGCC
  self-splicing fitness (ln) (30 °C): -2.2 ± 0.67
  self-splicing fitness (ln) (37 °C): -1.67 ± 0.67
ACAGAGCAAUAUUACGAGAG
  self-splicing fitness (ln) (30 °C): -3.84 ± 0.53

The list continues.

Row | Sequence | self-splicing fitness (ln) (30 °C) | self-splicing fitness (ln) (37 °C)
73 | AAUGAGCAAUAUUACGAGCC |  | -1.81 ± 0.52
74 | UAUGAGCAAUAUUACGGGGA |  | -2.46 ± 0.55
75 | AGGUAGCAAUAUUACGGUAA | -2.123 ± 0.021 | -1.2 ± 0.034
76 | UCGUAGCAAUAUUACGCCGC |  | -2.07 ± 1.1
77 | AGUUAGCAAUAUUACGAAUU | -1.62 ± 0.11 | -0.649 ± 0.12
78 | GACCAGCAAUAUUACGGCGG | -2.55 ± 0.2 | -2.79 ± 0.27
79 | GGAGAGCAAUAUUACGGUUA |  | -2.61 ± 0.55
80 | CUGGAGCAAUAUUACGCGCC |  | -1.27 ± 0.51
81 | UGAGAGCAAUAUUACGUCUC |  | -1.39 ± 0.87
82 | CAAAAGCAAUAUUACGCCCC |  | -1.99 ± 0.67
83 | GUAUAGCAAUAUUACGCGAC |  | -2.34 ± 0.77
84 | UUCAAGCAAUAUUACGCUGG | -2.29 ± 0.13 | -3.05 ± 0.24
85 | CAAUAGCAAUAUUACGCCCC |  | -0.414 ± 0.68
86 | AUUGAGCAAUAUUACGUCCA | -3.81 ± 0.52 | -2.01 ± 0.55
87 | UAGGAGCAAUAUUACGGUGC | -4.32 ± 0.52 | 0.0781 ± 0.55
88 | AAAUAGCAAUAUUACGAUAA | -1.51 ± 0.12 | -0.658 ± 0.13
89 | GAGUAGCAAUAUUACGGGGG | -4.36 ± 1 | 
90 | GCGAAGCAAUAUUACGUCAC | -4.72 ± 0.51 | 
91 | AGUUAGCAAUAUUACGCCAA | -2.48 ± 0.65 | 
92 | CGUUAGCAAUAUUACGCUAU |  | -0.681 ± 1.4
93 | UUUGAGCAAUAUUACGAGAC | -3.97 ± 1 | -2.42 ± 0.54
94 | ACGUAGCAAUAUUACGAGAC |  | -2.18 ± 1.1
95 | GACGAGCAAUAUUACGAAUA | -3.54 ± 0.73 | -2.7 ± 0.75
96 | GAGAAGCAAUAUUACGGAAU | -3.69 ± 0.25 | -1.55 ± 0.2
